Test results as given in patent US11339160B2, “Imidazole and triazole containing bicyclic compounds as JAK inhibitors” (THERAVANCE BIOPHARMA R&D IP, LLC, priority 2019, dated 2022).
For at least one compound, name, drawing or mass did not settle the structure.

By UniProt entry, the sequences of proteins in these tests, tags left out. Where a name states a change or a piece, a line headed by the entry shows the natural chain unless it says otherwise.
UniProt P52333: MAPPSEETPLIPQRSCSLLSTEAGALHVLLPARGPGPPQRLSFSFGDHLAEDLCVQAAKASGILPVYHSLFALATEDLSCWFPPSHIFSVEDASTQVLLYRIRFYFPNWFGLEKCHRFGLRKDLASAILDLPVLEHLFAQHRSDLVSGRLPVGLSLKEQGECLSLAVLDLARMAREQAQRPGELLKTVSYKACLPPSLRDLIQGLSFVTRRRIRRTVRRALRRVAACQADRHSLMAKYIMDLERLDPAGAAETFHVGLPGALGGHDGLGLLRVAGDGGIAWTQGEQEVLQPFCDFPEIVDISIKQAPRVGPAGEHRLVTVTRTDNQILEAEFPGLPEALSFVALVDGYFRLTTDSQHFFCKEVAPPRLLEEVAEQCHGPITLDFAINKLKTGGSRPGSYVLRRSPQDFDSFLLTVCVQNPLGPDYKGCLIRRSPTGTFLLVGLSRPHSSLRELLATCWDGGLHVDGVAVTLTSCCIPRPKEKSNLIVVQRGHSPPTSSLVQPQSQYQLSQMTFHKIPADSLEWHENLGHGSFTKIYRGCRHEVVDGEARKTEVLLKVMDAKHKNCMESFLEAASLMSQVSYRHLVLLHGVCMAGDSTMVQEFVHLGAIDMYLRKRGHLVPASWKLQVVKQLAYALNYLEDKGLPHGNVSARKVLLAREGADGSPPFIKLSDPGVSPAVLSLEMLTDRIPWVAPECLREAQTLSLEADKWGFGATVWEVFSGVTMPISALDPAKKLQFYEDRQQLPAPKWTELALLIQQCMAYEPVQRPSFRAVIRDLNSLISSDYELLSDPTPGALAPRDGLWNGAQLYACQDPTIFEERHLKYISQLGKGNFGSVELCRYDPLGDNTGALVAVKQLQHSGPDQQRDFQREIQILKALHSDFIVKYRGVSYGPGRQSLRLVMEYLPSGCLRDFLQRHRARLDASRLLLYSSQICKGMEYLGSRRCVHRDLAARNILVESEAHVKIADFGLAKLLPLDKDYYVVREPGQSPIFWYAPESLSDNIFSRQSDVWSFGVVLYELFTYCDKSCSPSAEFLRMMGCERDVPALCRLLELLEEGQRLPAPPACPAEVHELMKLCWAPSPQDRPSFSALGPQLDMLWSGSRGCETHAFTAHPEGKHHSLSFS

Biological target: JAK3 (Homo sapiens (Human), UniProt P52333)
Test: Biochemical JAK3 kinase assay (LanthaScreen)
Conditions: selectivity, difference of pKi values
Protocol: Assay 1: Biochemical JAK and Tyk2 Kinase Assays
A panel of four LanthaScreen JAK biochemical assays (JAK1, 2, 3 and Tyk2) were carried in a common kinase reaction buffer (50 mM HEPES, pH 7.5, 0.01% Brij-35, 10 mM MgCl2, and 1 mM EGTA). Recombinant GST-tagged JAK enzymes and a GFP-tagged STAT1 peptide substrate were obtained from Life Technologies.
Serially or discretely diluted compounds were pre-incubated with each of the four JAK enzymes and the substrate in white 384-well microplates (Corning) at ambient temperature for 1 h. ATP was subsequently added to initiate the kinase reactions in 10 μL total volume, with 1% DMSO. […] The plates were allowed to incubate at ambient temperature for 1 h before being read on the EnVision reader (Perkin Elmer). Emission ratio signals (520 nm/495 nm) were recorded and utilized to calculate the percent inhibition values based on DMSO and background controls.
For dose-response analysis, percent inhibition data were plotted vs. compound concentrations, and IC50 values were determined from a 4-parameter robust fit model with the Prism software (GraphPad Software). Results were expressed as pIC50 (negative logarithm of IC50) and subsequently converted to pKi (negative logarithm of dissociation constant, Ki) using the Cheng-Prusoff equation.

Compound: C=CC(=O)N1[C@@H]2CC[C@H]1C[C@H](Oc1cc(-c3ccc(O)cc3)cn3cncc13)C2 [Example 10, 1-((1R,3S,5S)-3-((6-(4-hydroxyphenyl)imidazo[1,5-a]pyridin-8-yl)oxy)-8-azabicyclo[3.2.1]octan-8-yl)prop-2-en-1-one]
- JAK3 (pKi)-JAK1 (pKi): A (a value of 3 or above)
